This passage reports cell number change and AC50 results from PubChem BioAssay AID2685 (National Center for Advancing Translational Sciences (NCATS), 2010).

For orientation: AC50 means the midpoint of the concentration-response curve, whichever way the signal moves. Read a low AC50 as activity at low concentration.

The nature of the assay: qHTS Assay for Lipid Storage Modulators in Drosophila S3 Cells.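 For cell number change: cells counted by Cell Tracker Red CMTPX staining in the red channel.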 Particulars: BODIPY lipid droplet fluorescence, 18-24 h; for cell number change: measured here: cell count max response, cells fed with added oleic acid. An outline of the steps:
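Laser-scanning cytometry quantifies lipid droplet accumulation (500–530 nm total intensity; droplet/cell object ratio) in oleic acid-fed (400 uM added) Drosophila S3 cells treated with a concentration series. 20 uM Triacsin C defined 100% inhibition.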

Where [1] appears, read: measured here: lipid fluorescence (Fed channel) AC50, cells fed with added oleic acid.
The mark [2] stands for this setting: measured here: cell number channel AC50, cells fed with added oleic acid.

Some of the results follow. Shown are side measurements of this screen, not its main read-out; they come without a call. Most of these compounds were active or inconclusive in the main read-out, so they are no random draw. Words in brackets tell the shape of the fitted curve; partial curves, single points and poor fits give uncertain potencies.

Turning to `Cc1ccc(NC(=O)c2ccc(CSc3ncnc4nc[nH]c34)cc2)c(C)c1`, the cell number change came to 20.7%. Besides, under setting [1], the half-maximal activity concentration (AC50) is 29.1 µM [rising, single point].

For the compound `Cc1ccccc1NC(=O)c1cccc(NC(=O)c2ccco2)c1`, the cell number change is -38.9%. Moreover, the AC50 under setting [2] was 20.6 µM [falling, partial curve, poor fit]. Also, under setting [1], the AC50 was 14.6 µM [falling, partial curve, poor fit].

Take `COc1ccccc1NC(=O)c1oc2ccccc2c1NC(=O)c1ccco1`: the AC50 under setting [2] was 3.26 µM [rising, partial curve] and the concentration at half-maximal activity (AC50) under setting [1] is 0.651 µM [rising, full curve].

Take `Cc1ccc(NC(=O)COC(=O)c2cc(-c3cccs3)nn2-c2ccccc2)cc1[N+](=O)[O-]`: under setting [1], the concentration at half-maximal activity (AC50) is 29.1 µM [rising, single point].

Consider `CC(C)NC(=S)NC(=O)/C=C/c1cccc2ccccc12`, for which the cell number change is 32.6%. The AC50 under setting [2] is 0.651 µM [rising, full curve, poor fit]. Further, under setting [1], the AC50 is 20.6 µM [rising, single point].

For `CC(=O)Nc1ccc(NC(=O)C2(C)CC2(Cl)Cl)cc1` (stereo not drawn), the cell number change was -30.6%. The AC50 under setting [2] was 2.59 µM [falling, full curve]. For the same compound, under setting [1], the AC50 was 29.1 µM [falling, single point].

As for `Cc1ccc(O)c(N/C=C/C(=O)c2ccc(F)cc2)c1`, the cell number change is -46.7%. In addition, under setting [1], the concentration at half-maximal activity (AC50) is 18.4 µM [falling, single point].

Regarding `S=C(NCC1CCCO1)Nc1ccccc1Cl` (stereo not drawn), the cell number change was 0.627%.

`CC(Oc1ccc(Br)cc1)C(=O)N1CCN(c2ccccn2)CC1` (stereo not drawn): the cell number change is -24.1%. The AC50 under setting [1] is 29.1 µM [rising, single point].

On to `CCCCn1c(N)c(NCc2ccccc2OC)c(=O)[nH]c1=O`, for which the cell number change was 51.9%. Also, the AC50 under setting [2] was 0.00411 µM [rising, full curve, poor fit].

For the compound `Cc1ccc(/C=N/NC(=O)CCCOc2ccc(Cl)cc2Cl)cc1`, the cell number change is -61.5%. Under setting [2], the concentration at half-maximal activity (AC50) is 20.6 µM [falling, single point]. The concentration at half-maximal activity (AC50) under setting [1] is 16.4 µM [falling, single point].

Take `Cc1cccn2cc(-c3ccc(S(=O)(=O)N4CCOCC4)cc3)nc12`: the cell number change worked out at 8.16%. The AC50 under setting [2] is 0.00461 µM [rising, full curve, poor fit].

`Cc1ccc(S(=O)(=O)N(C)C)cc1NC(=S)NCc1ccco1`: the cell number change worked out at 12.2%. The AC50 under setting [1] is 0.517 µM [rising, full curve, poor fit].

For the compound `O=S(=O)(c1ccccc1)[C@@]1(c2ccc(Br)cc2)C[C@@H]2ON=C(c3cccc(Br)c3)[C@@H]2C1`, under setting [1], the AC50 was 4.11 µM [rising, single point].

Consider `COC(=O)CN1CCN(C(=O)c2ccco2)CC1`, for which the cell number change was -10.5%. Besides, the AC50 under setting [1] was 1.16 µM [falling, full curve, poor fit].

For the compound `Cc1ccc(Cl)cc1N1CCN(S(=O)(=O)c2cccc(S(=O)(=O)N3CCCC3)c2)CC1`, the cell number change was 33%. Moreover, the half-maximal activity concentration (AC50) under setting [2] was 29.1 µM [rising, single point]. Also, the AC50 under setting [1] is 6.51 µM [falling, single point].

`Fc1ccc(CN2CCCCCC2)c(F)c1`: the cell number change is -35.2%. Moreover, the AC50 under setting [2] was 29.1 µM [falling, single point]. Besides, under setting [1], the concentration at half-maximal activity (AC50) was 29.1 µM [falling, single point].

As to `COc1ccc(S(=O)(=O)Nc2ccc(S(=O)(=O)N(C)C)cc2)cc1[N+](=O)[O-]`, the cell number change worked out at 5.31%. In addition, under setting [1], the concentration at half-maximal activity (AC50) is 29.1 µM [falling, single point].

In the case of `Cc1ccc2c(c1)/C(=C/c1ccccc1F)C(=O)N2`, the cell number change is -42.2%. Further, the AC50 under setting [2] is 14.6 µM [falling, partial curve].

Turning to `COc1cccc(NC(=O)CCc2c(C)nn(-c3ccc(N4CCOCC4)nn3)c2C)c1`, the cell number change was -2.14%. Besides, the AC50 under setting [1] is 5.8 µM [falling, full curve, poor fit].

As to `Cc1ccc(-c2csc(NC(=O)CSc3nc(C)cc(=O)[nH]3)n2)cc1`, the cell number change is -42.4%. The half-maximal activity concentration (AC50) under setting [2] is 29.1 µM [falling, single point]. The half-maximal activity concentration (AC50) under setting [1] is 29.1 µM [falling, single point].

Consider `COc1ccc(S(=O)(=O)N2CCCCC2)cc1NC(=O)c1ccc2c(c1)OCO2`, for which the cell number change was 22%. In addition, under setting [1], the AC50 was 4.11 µM [rising, partial curve, poor fit].

For `Cc1cccc(CC(=O)NCC(=O)NCc2cc(=O)n(C)c(=O)n2C)c1`, the cell number change was determined as 20.6%. Moreover, the concentration at half-maximal activity (AC50) under setting [1] is 8.2 µM [rising, partial curve].

On to `CN1CCN(/C(=N\S(=O)(=O)c2ccc(F)cc2)c2ccccc2)CC1`, for which the cell number change was -63.1%. The concentration at half-maximal activity (AC50) under setting [2] was 23.1 µM [falling, partial curve, poor fit]. Besides, the half-maximal activity concentration (AC50) under setting [1] was 6.51 µM [falling, single point].

With `Cc1ccc(C2CC(=O)NC(SCC(=O)OCc3ccccc3)=C2C#N)o1` (stereo not drawn), the cell number change was -22.1%. Under setting [2], the half-maximal activity concentration (AC50) is 0.00461 µM [falling, full curve, poor fit].

With `COC(=O)c1ccc(C2C(C(=O)Nc3ccc(C)cc3C)=C(C)Nc3ncnn32)cc1` (stereo not drawn), the cell number change was determined as 12.9%. The AC50 under setting [2] is 0.146 µM [rising, full curve, poor fit]. Under setting [1], the AC50 was 0.206 µM [rising, full curve].

Take `CCOC(=O)/C=C1\SCC(=O)N1CC(=O)Nc1cccc(F)c1`: the cell number change was -35.1%. Besides, under setting [1], the AC50 was 1 µM [rising, partial curve].

Regarding `CCn1c(N)nc2ccccc21`, the cell number change is -17%.

Consider `COc1ccccc1NC(=O)c1ccc(NC(=O)CSc2n[nH]c(N)n2)cc1`, for which the cell number change was -7.04%. The concentration at half-maximal activity (AC50) under setting [1] was 0.651 µM [falling, single point].

Consider `N#Cc1nc(-c2cccs2)oc1NCCN1CCOCC1`, for which the cell number change was 23.9%. Moreover, the half-maximal activity concentration (AC50) under setting [2] is 0.146 µM [rising, full curve, poor fit].

In the case of `O=c1oc(-c2ccc([N+](=O)[O-])cc2)nc2ccccc12`, the cell number change is 13.1%. Also, under setting [2], the AC50 was 0.231 µM [rising, full curve, poor fit]. Besides, under setting [1], the AC50 was 0.00461 µM [rising, full curve, poor fit].

Consider `COc1ccc(-c2cc(C(=O)NN3CCOCC3)c3ccccc3n2)cc1OC`, for which the cell number change is -3.31%.

Regarding `CC(C)Cn1c(N)c(C(=O)CSc2nnnn2C)c(=O)n(C)c1=O`, the cell number change came out at 1.76%. For the same compound, under setting [1], the AC50 is 2.31 µM [rising, partial curve].

On to `COCCNC(=O)/C(=C/c1ccccc1Cl)c1ccccc1`, for which the cell number change is -56.8%. The concentration at half-maximal activity (AC50) under setting [2] was 29.1 µM [falling, single point]. For the same compound, under setting [1], the AC50 was 6.51 µM [rising, single point].

`CCOC(=O)c1sc(Nc2nc3cc4c(cc3s2)OCO4)cc1C`: the cell number change is -48%. Further, under setting [2], the concentration at half-maximal activity (AC50) was 16.4 µM [falling, single point]. In addition, under setting [1], the AC50 is 18.4 µM [falling, single point].

As to `O=C(O)CCN(CCC(=O)O)S(=O)(=O)c1ccccc1`, the cell number change is -24.1%. Moreover, the half-maximal activity concentration (AC50) under setting [1] is 16.4 µM [falling, single point].

On to `COc1ccc(N=C2NC(=O)/C(=C/C=C/c3ccccc3)S2)cc1`, for which the cell number change was 5.84%. Further, under setting [2], the AC50 is 0.82 µM [rising, single point].

Regarding `Cc1cc(CN(C)C(=O)c2cc(COc3ccc(C)c(C)c3)on2)on1`, the cell number change was -17%. Under setting [1], the AC50 is 29.1 µM [falling, single point].

For the compound `CCCNC(=O)c1onc(CSc2ccc(F)cc2)c1C(=O)NCCOC`, the cell number change was determined as 4.88%. The AC50 under setting [1] is 1.03 µM [falling, full curve].

As to `O=C(/C=C\c1cn(-c2ccccc2)nc1-c1cccs1)N1CCOCC1`, the AC50 under setting [1] is 0.13 µM [rising, full curve, poor fit].

As for `CCOc1ccc(NS(=O)(=O)c2ccc(NS(C)(=O)=O)cc2)cc1`, the cell number change was -15.7%.

For `Clc1cnc(N/N=C/c2cccs2)c(Cl)c1`, the cell number change was -8.09%. Besides, under setting [1], the AC50 was 0.58 µM [rising, partial curve, poor fit].

Turning to `O=c1[nH]c(=O)n(Cc2ccco2)c2c1C(C(F)(F)F)(C(F)(F)F)N=C(c1ccco1)N2`, the cell number change was 43.9%. Moreover, the AC50 under setting [2] was 2.59 µM [rising, full curve].

Take `CC(OC(=O)Cn1cnc2c1c(=O)n(C)c(=O)n2C)C(=O)c1ccccc1` (stereo not drawn): the cell number change was -29.5%. Also, the AC50 under setting [1] was 29.1 µM [falling, single point].

With `O=C(Nc1ccccc1)c1sc(Cl)nc1-c1ccccc1`, the cell number change is 72.6%. In addition, the half-maximal activity concentration (AC50) under setting [2] was 0.116 µM [rising, full curve]. Moreover, under setting [1], the concentration at half-maximal activity (AC50) was 29.1 µM [rising, single point].

Regarding `O=C(CC1CCCCC1)NCC1CCCO1` (stereo not drawn), the cell number change was -4.6%. In addition, the AC50 under setting [2] was 0.146 µM [falling, full curve, poor fit]. Under setting [1], the AC50 is 0.731 µM [falling, full curve].

As to `CC1CC(=O)N(CC(=O)Nc2ccc(F)cc2F)c2ccccc2S1(=O)=O` (stereo not drawn), the cell number change is -18.7%.

Take `CCSc1nnc(CCNC(=O)OC(C)(C)C)o1`: the cell number change was -29.5%. For the same compound, the AC50 under setting [1] is 20.6 µM [falling, partial curve].

In the case of `C=CCN1C(=O)/C(=C\c2ccco2)C(C(=O)OC)=C1C`, the cell number change is -12.2%. Also, under setting [1], the AC50 is 0.184 µM [falling, full curve, poor fit].

On to `CC(NC(=O)COc1ccc(Br)cc1)C1CCCO1` (stereo not drawn), for which the cell number change was -3.2%. Also, the concentration at half-maximal activity (AC50) under setting [1] is 1.16 µM [rising, full curve].

For `Cn1c(SCC(=O)N2CCCC2)nnc1-c1ccc2c(c1)OCO2`, the concentration at half-maximal activity (AC50) under setting [1] is 29.1 µM [rising, single point].

On to `CCN(Cc1ccccc1)C(=O)COC(=O)CNS(=O)(=O)c1ccc(C)cc1`, for which the cell number change is -12.4%. In addition, the half-maximal activity concentration (AC50) under setting [1] was 23.1 µM [falling, single point].

As to `O=C(NCCCNC(=O)c1ccco1)c1ccc(Cl)cc1`, the cell number change is -3.91%.

As for `Cc1cccc(NC(=O)C2CCCN(C(=O)Nc3ccc(F)cc3)C2)c1` (stereo not drawn), the cell number change came to 25.6%. Also, the AC50 under setting [1] is 11.6 µM [rising, partial curve].

In the case of `Cn1cc(C(=O)N/N=C/c2cccc([N+](=O)[O-])c2)c2ccccc21`, the concentration at half-maximal activity (AC50) under setting [1] was 1.84 µM [rising, partial curve, poor fit].

Consider `CCNC(=S)Nc1ccc(OC(F)(F)F)cc1`, for which the cell number change stood at 12.8%. Besides, under setting [1], the AC50 was 0.259 µM [falling, single point].

In the case of `COc1ccc(-n2nc([N+](=O)[O-])c(=NCc3ccco3)n2O)cc1`, the cell number change is -30.8%. Besides, under setting [2], the AC50 is 0.82 µM [falling, full curve]. Also, the half-maximal activity concentration (AC50) under setting [1] was 1.64 µM [falling, partial curve].
